The whole screen tested about 300,000 compounds, of which about 5,400 (1.8%) were called active. The inconclusive results got no clear call from the source; some entries with a clear call stand among them for comparison. Calls come from the whole dose curve; tested in HEK293 cells. Potencies of inconclusive entries are doubtful fits and often do not repeat.
assay: qHTS for inhibitors of binding or entry into cells for Marburg Virus; conditions: Marburg virus pseudotyped entry inhibition, cell reporter; activity change, negative = inhibition: at 37.8 µM (top of the series) unless noted
% is set by controls: 0 for no effect and ±100 for the full control effect; potency is the fitted concentration of half-maximal effect.

Structure (SMILES) | Potency | activity change, negative = inhibition
CC(C)N(Cc1cn(C)nc1-c1cccc(Cl)c1)Cc1nccn1C | inconclusive: 35.5 µM [inhibitor, single point] | 
CC(NC(=O)COC(=O)c1ccc2ccccc2n1)c1ccccc1 (stereo unspecified) |  | inactive: -0.241%
Cc1ccc(Nc2c(-c3ccc(N4CCOCC4)cc3)nc3ccc(C)cn23)cc1 |  | inactive: -1.26% [at 46.1 µM]
c1ccc2[nH]c(SCc3cscn3)nc2c1 | inconclusive: 0.103 µM [activator, full curve, poor fit] | 
N#Cc1c(SCC(N)=O)nsc1SCc1ccccc1Cl | inconclusive: 5.62 µM [activator, single point] | 
CN(C)C(=S)c1ccccc1 | inconclusive: 1.26 µM [inhibitor, partial curve, poor fit] | 
O=[N+]([O-])c1ccc(CNc2ccc(F)cc2)s1 | inconclusive: 14.1 µM [inhibitor, single point] | 
COc1ccc(-c2csc3nc(-c4ccc(Cl)cc4)oc(=O)c23)cc1 |  | inactive: -0.0094% [at 46.1 µM]
CC(=O)Nc1cccc(-c2nnc(SCC(=O)n3c4c(c5ccccc53)CCCC4)n2C)c1 | inconclusive: 2.82 µM [activator, single point] | 
O=C(CCNc1ccc(F)cc1)c1cccc([N+](=O)[O-])c1 |  | inactive: 11.3%
COc1cc2c(cc1NC(=O)C(C)OC(=O)/C=C/c1ccc(OC(F)F)cc1)oc1ccccc12 (stereo unspecified) | inconclusive: 6.31 µM [activator, single point] | 
COc1ccc(/C(O)=C2/C(=O)C(=O)N(CCCN(C)C)C2c2cccc(Cl)c2)cc1OC (stereo unspecified) | inconclusive: 5.62 µM [inhibitor, single point] | 
COc1ccc(-c2nc(-n3c(C)c(C(C)=O)c(C(C)=O)c3C)sc2C)cc1OC |  | inactive: -21%
O=C(CN1C(=O)CSc2ccc(S(=O)(=O)N3CCCCC3)cc21)NCc1ccccc1 |  | inactive: -14.2% [at 46.1 µM]
CC(C)(C)SCCNC(=O)c1ccc(Cl)c(S(=O)(=O)N2CCOCC2)c1 | inconclusive: 11.2 µM [inhibitor, single point] | 
Cc1cccc(NC(=S)N(CCc2ccncc2)C(C)C)c1C | inconclusive: 1 µM [inhibitor, full curve, poor fit] | 
[N-]=[N+]=CC(=O)C(c1ccccc1)(c1ccccc1)c1ccccc1 |  | inactive: -14.3% [at 14.2 µM]
O=C(CCCc1ccccc1)NCCCc1ccccc1 |  | inactive: 9.66%
O=C(COc1ccc2ccccc2c1)NNC(=O)C(=O)Nc1ccccc1 |  | inactive: 3.04% [at 46.1 µM]
O=C(NCCC1CCCCN1S(=O)(=O)c1ccc(Cl)cc1)C(=O)NCc1cccnc1 (stereo unspecified) | inconclusive: 35.5 µM [inhibitor, single point] | 
CN1C(=O)C2(c3ccccc31)N(C)CC(c1ccccc1)C21SC(=S)N(Cc2ccco2)C1=O (stereo unspecified) | inconclusive: 29.1 µM [inhibitor, single point] | 
CCOC(=O)C1(CCc2ccccc2)CCN(Cc2ccco2)CC1 | inconclusive: 11.2 µM [inhibitor, partial curve, poor fit] | 
Cc1ccc(CSc2nc(N)cc(N)n2)cc1 |  | inactive: 11.3%

Individual results from the results shown:
For activity change, negative = inhibition, O=C(CN1C(=O)CSc2ccc(S(=O)(=O)N3CCCCC3)cc21)NCc1ccccc1 has the entry inactive: -14.2% [at 46.1 µM]
For activity change, negative = inhibition, Cc1ccc(Nc2c(-c3ccc(N4CCOCC4)cc3)nc3ccc(C)cn23)cc1 has the entry inactive: -1.26% [at 46.1 µM]

Remaining list, next part:

Structure (SMILES) | Potency | activity change, negative = inhibition
CC(=O)NCCNC(=O)c1ccc(CSc2ccc(Cl)cc2)cc1 | inconclusive: 3.16 µM [activator, partial curve, poor fit] | 
Cc1cccn2c(=O)c3cc(C(=O)NCC4CCCO4)c(=N)n(CC4CCCO4)c3nc12 (stereo unspecified) | inconclusive: 20 µM [inhibitor, single point] | 
O=C(Nc1cc(Sc2ccccn2)cc([N+](=O)[O-])c1)c1cccc(F)c1 | inconclusive: 7.08 µM [inhibitor, partial curve, poor fit] | 
COc1coc(C(O)CN)cc1=O (stereo unspecified) |  | inactive: -0.54% [at 46.1 µM]
COCC(C)n1c(C)cc(C(=O)COC(=O)c2nc3nc(C)cc(C)n3n2)c1C (stereo unspecified) | inconclusive: 29.1 µM [activator, single point] | 
Cn1nnnc1NCc1cccc(Cl)c1Cl | inconclusive: 0.631 µM [inhibitor, full curve, poor fit] | 
Cc1ccc2cc(C#N)c(SCc3nnc(-c4ccccc4[N+](=O)[O-])o3)nc2c1 | inconclusive: 0.1 µM [activator, full curve, poor fit] | 
CSc1nnc(-c2sccc2-n2cccc2)o1 |  | inactive: 11.6% [at 46.1 µM]
COc1ccc(-c2nnc(SCc3ccccn3)n2C)cc1 |  | inactive: 23.7%
COc1ccc(CCn2c(=N)c(C(=O)N3CCN(C)CC3)cc3c(=O)n4ccccc4nc32)cc1 | inconclusive: 17.8 µM [inhibitor, single point] | 
COc1ccc(S(=O)(=O)N2CCC(Oc3cccc(C(F)(F)F)c3)CC2)cc1OC | inconclusive: 5.01 µM [inhibitor, full curve, poor fit] | 
C=CCNCCCOc1ccc(C)cc1Br | inconclusive: 22.4 µM [activator, partial curve, poor fit] | 
CN(CC(=O)Nc1cccc(F)c1)C(=O)c1cccc(S(=O)(=O)N2CC3(C)CC2CC(C)(C)C3)c1 (stereo unspecified) | inconclusive: 11.2 µM [inhibitor, partial curve, poor fit] | 
O=C(NNC(=O)c1cc(-c2ccco2)nc2ccccc12)c1ccccc1 |  | inactive: 0.203%
COCc1c(C#N)c(NCCc2ccccc2)nc(C)c1[N+](=O)[O-] |  | inactive: -10.7%
COc1ccc(C(=O)Oc2cc(OC)cc(OC)c2C(C)=O)cc1 | inconclusive: 0.0033 µM [inhibitor, full curve, poor fit] | 
CC(C)n1c(NCc2ccc(Cl)cc2)nc2ccccc21 | inconclusive: 31.6 µM [inhibitor, partial curve, poor fit] | 
COc1ccccc1C(=O)NC(=S)NC12CC3CC(CC(C3)C1)C2 | inconclusive: 8.91 µM [activator, partial curve, poor fit] | 
O=C(Nc1ccnn1C1CCN(C/C=C/c2ccccc2)CC1)c1ccccc1 | inconclusive: 35.5 µM [inhibitor, single point] | 
O=C1C(Cl)=C(NC2CCCCC2)C(=O)N1c1ccc(Cl)cc1 |  | inactive: 26.8%
CCN(CC(=O)NC1CC1)S(=O)(=O)c1ccc(C)cc1 |  | inactive: 3.36% [at 46.1 µM]
Cn1c(=O)c2cc(C(=O)NCCCN3CCN(c4ccc(F)cc4)CC3)sc2c2ccccc21 |  | inactive: 1.75% [at 46.1 µM]
Cc1ccc(C(=O)c2oc3ccccc3c2NC(=O)COc2ccccc2C)cc1 |  | inactive: 0.835% [at 46.1 µM]

Source: PubChem BioAssay AID540276 (National Center for Advancing Translational Sciences (NCATS), 2011)
